PubChem BioAssay AID1347076 (National Center for Advancing Translational Sciences (NCATS), 2019)
The campaign covered roughly 400,000 compounds. About 13,000 (3.2%) were called active. The inconclusive results got no clear call from the source; some entries with a clear call stand among them for comparison. Calls follow the shape of the dose curve; as a rule, active = well fitted cell-killing curve with a large enough effect; inconclusive = small, poorly fitted or top-dose-only effect, or effect the other way; inactive = flat fitted curve, though single readings scatter. Where the call is inconclusive, the potency comes from a doubtful curve fit.

Assay: qHTS assay for MDR1-selective chemotherapeutics: Primary screen using the drug-selected MDR subline cells KB-V1; also: nearly all actives have a fitted effect of over 60% in size
Details: KB-V1 MDR cells viability, CellTiter-Glo, 72 h; activity change, negative = cytotoxicity: at 46.1 µM (top of the series)
In short: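 Cells of the MDR subline KB-V1 are plated, dosed with compound at multiple concentrations, and incubated 72 h at 37 degrees C; CellTiter-Glo is then added and luminescence read after 10 min.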
% is scaled to controls: 0 for no effect and ±100 for the full control effect; potency is read from the fitted curve at half-maximal effect.

Row | Structure (SMILES) | activity change, negative = cytotoxicity | Potency
1 | Cc1ccc(Cl)cc1NC(=O)Cn1c(=O)n(CCC(=O)N2CCc3ccccc3C2)c(=O)c2ccccc21 | inactive: -26.5% | –
2 | CCCS(=O)(=O)NC(=O)C1(C)CCCN(C(=O)c2ccc(OC)cc2)C1 (centres undefined) | inactive: -4.09% | –
3 | O=S(=O)(c1cccc2cccnc12)N1CCN(Cc2ccccc2)CC1 | – | inconclusive: 16.4 µM [cytotoxic, partial curve, poor fit]
4 | O=C(O)c1ccc(CNCc2cc(Cl)ccc2O)cc1 | – | inconclusive: 18.4 µM [rising, partial curve, poor fit]
5 | Cc1cccc(NC(=O)/C(C#N)=C/c2cn(CC(=O)NCc3ccco3)c3ccccc23)c1C | – | inconclusive: 29.1 µM [cytotoxic, single point]
6 | Cc1cccc(NC(=O)CNC(=O)C23CC4CC(CC(Cl)(C4)C2)C3)n1 | – | inconclusive: 16.4 µM [cytotoxic, partial curve, poor fit]
7 | COc1ccc(C(=O)Nc2nnc(SCC(=O)NCC3CCCO3)s2)cc1OC (centres undefined) | – | inconclusive: 2.31 µM [rising, partial curve]
8 | CC(c1ccccc1)c1nnc(NC(=O)c2ccc3c(c2)OCO3)s1 (centres undefined) | – | active: 14.6 µM
9 | Cc1cc(=O)oc2cc(OCC(=O)NC(Cc3c[nH]c4ccc(O)cc34)C(=O)O)c(Cl)cc12 (centres undefined) | inactive: 0% | –
10 | O=C(CN1CCN(c2ccc([N+](=O)[O-])cc2)CC1)Nc1ccccn1 | – | inconclusive: 16.4 µM [cytotoxic, partial curve]
11 | Cc1ncc([N+](=O)[O-])n1CC(=O)NC(C)(C)C | – | inconclusive: 2.06 µM [rising, partial curve, poor fit]
12 | CC(C)C(C)NC(=O)CN1C(=O)NC2(CCCCCC2)C1=O (centres undefined) | – | inconclusive: 20.6 µM [rising, single point]
13 | COc1cccc(Nc2nc(N)nc(C(F)(F)F)n2)c1 | – | inconclusive: 29.1 µM [cytotoxic, single point]
14 | Cn1c(=O)c(=O)n(C)c2cc(S(=O)(=O)CCC(=O)Nc3c(F)c(F)c(F)c(F)c3F)ccc21 | – | inconclusive: 29.1 µM [rising, single point]
15 | COc1cccc(-c2cc(NC=O)c3ncc(-c4ccc(F)c(Cl)c4)n3c2)c1 | – | inconclusive: 20.6 µM [cytotoxic, single point]
16 | COc1ccccc1N1CCN(C(=O)c2onc(C)c2Cl)CC1 | – | inconclusive: 25.9 µM [cytotoxic, single point]
17 | CC1CCCCN1C(=O)CCNC(=O)Cn1cnc2ccccc2c1=O (centres undefined) | inactive: 5.49% | –
18 | COc1ccc(OC)c(NC(=O)CSc2nnc(-c3cccnc3)s2)c1 | inactive: -8.59% | –
19 | c1ccc(-c2cnc(-c3ccccn3)nn2)cc1 | – | inconclusive: 11.6 µM [cytotoxic, single point]
20 | CSCCC(NC(=O)/C(=C/c1ccco1)NC(=O)c1ccc(Br)o1)C(=O)O (centres undefined) | inactive: -10.4% | –
21 | COc1cccc(CNC(=O)c2ccc(CS(=O)Cc3ccc(C)cc3)o2)c1 (centres undefined) | inconclusive: -12.9% | –
22 | O=C(O)c1ccccc1NS(=O)(=O)c1ccc(NN=Cc2ccc(F)cc2)c([N+](=O)[O-])c1 | inactive: -3.2% | –
23 | Nc1nc2ccccc2n1C(=O)c1ccc(F)cc1 | – | inconclusive: 29.1 µM [cytotoxic, single point]
24 | COc1cc(NC(=O)c2oc3ccccc3c2C)ccc1NC(=O)c1ccco1 | inactive: -15.5% | –
25 | COn1c(C)c(C(C)=O)c2c3nonc3ccc21 | inactive: 4.57% | –

Row | Structure (SMILES) | activity change, negative = cytotoxicity | Potency
26 | CC(=O)NCc1ccc(-c2nc3ccccc3s2)cc1 | inactive: -27.7% | –
27 | COc1ccc(CCNC(=O)COC(=O)/C=C/c2ccc(OC)cc2OC)cc1 | – | inconclusive: 23.1 µM [cytotoxic, single point]
28 | CCOc1ccc(Nc2ccc([N+](=O)[O-])c3nonc23)cc1 | inactive: 4.23% | –
29 | COc1cc(C(=O)NCCC2=CCCCC2)ccc1OCc1c(C)noc1C | inactive: -29.4% | –
30 | COc1ccc(-n2nc3c(c2NC(=O)C(=O)N2CCN(C)CC2)CSC3)cc1 | inactive: 3.77% | –
31 | Cc1ccc(S(C)(=O)=O)cc1C(=O)OCC(=O)N(Cc1ccccc1)Cc1ccccc1 | – | inconclusive: 13 µM [cytotoxic, partial curve, poor fit]
32 | CN(C)C(CNC(=O)c1cc(S(=O)(=O)N2CCOCC2)ccc1Cl)c1cccs1 (centres undefined) | inactive: 33.3% | –
33 | Cc1cc(C)cc(OCC(=O)Nc2cccc(-c3nc4ccccc4[nH]3)c2)c1 | inactive: -29.8% | –
34 | N#C/C(=C\c1cccs1)C(=O)N1CCOCC1 | inconclusive: 60.6% | –
35 | O=C(Nc1ccccc1)Nc1ccc(Cl)c([N+](=O)[O-])c1 | – | inconclusive: 2.91 µM [rising, partial curve, poor fit]
36 | CCN1CCCC1CNC(=O)C(=O)NCCc1ccc(OC)c(OC)c1 (centres undefined) | inactive: -1.7% | –
37 | COc1ccc(Cn2c(C(=O)O)c(CNCCc3ccccc3Cl)c3ccc(C)cc32)cc1 | – | inconclusive: 18.4 µM [cytotoxic, single point]
38 | Cc1cc2c(sc3ccccc32)c(C)n1 | – | active: 20.6 µM
39 | Cc1cccc(N2N=C(C(=O)Nc3nc(C)cs3)CCC2=O)c1 | inactive: -2.12% | –
40 | COc1cc(OC)c(NC(=S)Nc2cc(Cl)cc(Cl)c2)cc1Cl | – | inconclusive: 29.1 µM [cytotoxic, single point]
41 | O=S(=O)(N1CCCCCC1)N1CCNCC1 | inactive: 18.9% | –
42 | Cc1ccc(Nc2nnc(SC(C)C(=O)NCC3CCCO3)s2)cc1C (centres undefined) | – | inconclusive: 8.2 µM [cytotoxic, partial curve]
43 | CCOC(=O)c1sc(N(Cc2ccccc2)C(=O)COC(=O)c2ccc(O)cc2)nc1C | inactive: -22.9% | –
44 | COc1ccc2c(CN3CCCCC3)cc(=O)oc2c1 | inactive: 24.8% | –
45 | CCC(=O)N1CCc2cc(S(=O)(=O)CCC(=O)NCc3ccc(F)cc3)ccc21 | – | inconclusive: 18.4 µM [rising, partial curve]
46 | O=S1(=O)CC(N2CCN(CC3CC3)CC2)CN1CCc1ccccc1 (centres undefined) | inactive: 10.2% | –
47 | CCOCC(=O)Nc1cc(C(=O)OC)ccc1C(=O)OC | inactive: 2.09% | –
48 | COCCNc1cnn(-c2ccccc2)c(=O)c1Cl | – | inconclusive: 23.1 µM [rising, single point]
49 | COc1cc(O)c(C(=O)/C=C/c2ccccc2)c(OC)c1 | – | inconclusive: 29.1 µM [cytotoxic, single point]
50 | CCc1ccc(N2C(=O)CS(=O)(=O)C23C(=O)N(Cc2ccccc2)c2ccccc23)cc1 (centres undefined) | inactive: -16.4% | –

Row | Structure (SMILES) | activity change, negative = cytotoxicity | Potency
51 | CC(=O)OC1CSc2nc3ccccc3n2C1 (centres undefined) | inactive: -9.46% | –
52 | Cc1ccc(-c2ccc(CN3C(C)C(=O)N(Cc4cn(CC5CCCCC5)nn4)CCS3(=O)=O)cc2)cc1 (centres undefined) | – | inconclusive: 16.4 µM [cytotoxic, partial curve]
53 | Cc1ccc(OCCCCN2CCCCC2)c(Br)c1 | – | active: 16.4 µM
54 | COc1ccc(OC)c(NC(=O)c2ccc(-c3csc(C)n3)cc2)c1 | – | inconclusive: 6.51 µM [cytotoxic, partial curve]
55 | COc1ccc(OCCn2cc(/C=N/NC(=O)c3ccncc3)c3ccccc32)cc1 | – | inconclusive: 18.4 µM [cytotoxic, single point]
56 | CC(=NNC(=O)c1ccc(NS(=O)(=O)c2cccs2)cc1)c1ccc(OCC(N)=O)cc1 | – | inconclusive: 29.1 µM [rising, single point]
57 | CCCCOCCCNC(=S)Nc1ccc(S(=O)(=O)N2CCOCC2)cc1 | – | active: 18.4 µM
58 | COc1cccc(C(=O)Nc2ccc(N3CCN(C(=O)c4ccco4)CC3)cc2)c1 | – | inconclusive: 4.61 µM [cytotoxic, partial curve]
59 | COc1ccccc1/C=C/C(=O)OCC(=O)NC1CCS(=O)(=O)C1 (centres undefined) | inactive: -18.9% | –
60 | O=C(COC(=O)c1ccccc1C(F)(F)F)NC(=O)NCc1ccco1 | – | inconclusive: 16.4 µM [cytotoxic, single point]
61 | O=C(Nc1ccccc1C(F)(F)F)c1noc2c1CCCCC2 | inactive: 0% | –
62 | Cc1cccn2c(=O)c3cc(C(=O)NC4CCCCCC4)sc3nc12 | inactive: -12.7% | –
63 | COc1ccc(-c2ccc(SCC(=O)N3CC(=O)Nc4ccccc43)nn2)cc1 | inactive: -11.2% | –
64 | CCC(C(=O)N1CCCCCC1)n1nc(C)n2c(cc3occc32)c1=O (centres undefined) | inactive: -1.83% | –
65 | C/C=C(/C)C(=O)Nc1cccc(C2=NOC3(C2)C[C@H](C(N)=O)N(C(=O)c2ccccc2)C3)c1 (some centres undefined) | – | inconclusive: 20.6 µM [rising, partial curve, poor fit]
66 | CC1CCCN(c2sc(S(C)(=O)=O)nc2S(=O)(=O)c2ccc(Cl)cc2)C1 (centres undefined) | – | inconclusive: 23.1 µM [cytotoxic, single point]
67 | Cc1ccc(N(Cc2ccco2)C(=O)c2ccc(N3CCCCC3)c([N+](=O)[O-])c2)cc1 | – | inconclusive: 29.1 µM [cytotoxic, single point]
68 | COc1ccc(/C=C2\N=C(SC)N(C)C2=O)cc1 | – | inconclusive: 29.1 µM [cytotoxic, single point]
69 | O=S(=O)(Cc1cccc(C(F)(F)F)c1)c1ncn[nH]1 | – | inconclusive: 20.6 µM [rising, partial curve, poor fit]
70 | CC(C)CCn1c(=O)c2sccc2n2c(CCCC(=O)N3CCC(N4CCCCC4)CC3)nnc12 | – | inconclusive: 2.91 µM [rising, partial curve, poor fit]
71 | CCCCc1cc(=O)oc2cc(C)cc(OCC(=O)NCc3ccccn3)c12 | inactive: -3.12% | –
72 | O=C1N(Cc2cccnc2)C[C@@H]2C[C@@H](c3ccc(-c4ccccc4)cc3)N3CCC[C@@]123 | – | inconclusive: 13 µM [cytotoxic, partial curve]
73 | Cc1c(CNC(C)c2ccccc2)c(C(=O)O)c(C)n1Cc1c(F)cccc1Cl (centres undefined) | – | inconclusive: 29.1 µM [rising, single point]
74 | CCOC(=O)[C@]12CCCC=C1N(Cc1ccc3c(c1)OCO3)C(=O)[C@H](CC(=O)NCCc1ccccc1OC)C2 | – | active: 23.1 µM

Looked up above:
Potency with CC1CCCN(c2sc(S(C)(=O)=O)nc2S(=O)(=O)c2ccc(Cl)cc2)C1 (centres undefined) is entered as inconclusive: 23.1 µM [cytotoxic, single point]
Potency with CC(C)CCn1c(=O)c2sccc2n2c(CCCC(=O)N3CCC(N4CCCCC4)CC3)nnc12 is entered as inconclusive: 2.91 µM [rising, partial curve, poor fit]
activity change, negative = cytotoxicity with Cc1cccn2c(=O)c3cc(C(=O)NC4CCCCCC4)sc3nc12 is entered as inactive: -12.7%
activity change, negative = cytotoxicity with CCC(C(=O)N1CCCCCC1)n1nc(C)n2c(cc3occc32)c1=O (centres undefined) is entered as inactive: -1.83%
activity change, negative = cytotoxicity with CC(=O)OC1CSc2nc3ccccc3n2C1 (centres undefined) is entered as inactive: -9.46%
Potency with CC(=NNC(=O)c1ccc(NS(=O)(=O)c2cccs2)cc1)c1ccc(OCC(N)=O)cc1 is entered as inconclusive: 29.1 µM [rising, single point]
